PMC6004054
These are yes or no findings as the source states them, for the method shown. In cells and extracts the contact can be indirect. Some results given as binding are weak or reduced against the parent protein; the word gives no strength. Where a sequence is shown, tags or fusion partners need not be part of it.

T1: SLFN14(WT)-myc (human) (UniProt P0C7P3)
T1 sequence: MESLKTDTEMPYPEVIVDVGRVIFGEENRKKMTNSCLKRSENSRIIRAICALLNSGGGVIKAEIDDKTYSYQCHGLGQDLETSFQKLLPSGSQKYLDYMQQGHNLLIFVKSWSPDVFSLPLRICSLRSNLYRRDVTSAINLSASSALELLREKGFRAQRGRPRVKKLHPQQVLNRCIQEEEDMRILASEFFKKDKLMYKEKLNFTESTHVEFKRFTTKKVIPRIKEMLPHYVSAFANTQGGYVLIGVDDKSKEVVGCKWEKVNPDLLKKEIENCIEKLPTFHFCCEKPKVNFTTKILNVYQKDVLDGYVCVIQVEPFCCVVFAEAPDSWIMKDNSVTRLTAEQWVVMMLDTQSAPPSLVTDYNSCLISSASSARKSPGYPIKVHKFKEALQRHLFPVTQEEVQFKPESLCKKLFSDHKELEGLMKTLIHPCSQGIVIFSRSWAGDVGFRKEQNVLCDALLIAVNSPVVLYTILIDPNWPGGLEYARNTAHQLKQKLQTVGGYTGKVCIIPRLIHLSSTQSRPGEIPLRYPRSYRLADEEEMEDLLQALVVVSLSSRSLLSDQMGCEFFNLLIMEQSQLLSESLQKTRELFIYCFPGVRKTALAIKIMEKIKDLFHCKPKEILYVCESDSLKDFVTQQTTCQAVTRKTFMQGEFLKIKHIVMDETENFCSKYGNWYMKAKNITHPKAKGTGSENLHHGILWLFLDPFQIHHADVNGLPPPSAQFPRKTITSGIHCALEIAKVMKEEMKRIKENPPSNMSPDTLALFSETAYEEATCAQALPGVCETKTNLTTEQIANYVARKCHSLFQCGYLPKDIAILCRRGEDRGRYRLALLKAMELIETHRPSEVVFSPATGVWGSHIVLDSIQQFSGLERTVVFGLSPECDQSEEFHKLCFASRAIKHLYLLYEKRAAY

B1: SLFN14(WT)-GFP (protein, UniProt P0C7P3 1-912)
chain: MESLKTDTEMPYPEVIVDVGRVIFGEENRKKMTNSCLKRSENSRIIRAICALLNSGGGVIKAEIDDKTYSYQCHGLGQDLETSFQKLLPSGSQKYLDYMQQGHNLLIFVKSWSPDVFSLPLRICSLRSNLYRRDVTSAINLSASSALELLREKGFRAQRGRPRVKKLHPQQVLNRCIQEEEDMRILASEFFKKDKLMYKEKLNFTESTHVEFKRFTTKKVIPRIKEMLPHYVSAFANTQGGYVLIGVDDKSKEVVGCKWEKVNPDLLKKEIENCIEKLPTFHFCCEKPKVNFTTKILNVYQKDVLDGYVCVIQVEPFCCVVFAEAPDSWIMKDNSVTRLTAEQWVVMMLDTQSAPPSLVTDYNSCLISSASSARKSPGYPIKVHKFKEALQRHLFPVTQEEVQFKPESLCKKLFSDHKELEGLMKTLIHPCSQGIVIFSRSWAGDVGFRKEQNVLCDALLIAVNSPVVLYTILIDPNWPGGLEYARNTAHQLKQKLQTVGGYTGKVCIIPRLIHLSSTQSRPGEIPLRYPRSYRLADEEEMEDLLQALVVVSLSSRSLLSDQMGCEFFNLLIMEQSQLLSESLQKTRELFIYCFPGVRKTALAIKIMEKIKDLFHCKPKEILYVCESDSLKDFVTQQTTCQAVTRKTFMQGEFLKIKHIVMDETENFCSKYGNWYMKAKNITHPKAKGTGSENLHHGILWLFLDPFQIHHADVNGLPPPSAQFPRKTITSGIHCALEIAKVMKEEMKRIKENPPSNMSPDTLALFSETAYEEATCAQALPGVCETKTNLTTEQIANYVARKCHSLFQCGYLPKDIAILCRRGEDRGRYRLALLKAMELIETHRPSEVVFSPATGVWGSHIVLDSIQQFSGLERTVVFGLSPECDQSEEFHKLCFASRAIKHLYLLYEKRAAY
B2: SLFN14(V220D)-GFP (protein, UniProt P0C7P3 1-912)
chain: MESLKTDTEMPYPEVIVDVGRVIFGEENRKKMTNSCLKRSENSRIIRAICALLNSGGGVIKAEIDDKTYSYQCHGLGQDLETSFQKLLPSGSQKYLDYMQQGHNLLIFVKSWSPDVFSLPLRICSLRSNLYRRDVTSAINLSASSALELLREKGFRAQRGRPRVKKLHPQQVLNRCIQEEEDMRILASEFFKKDKLMYKEKLNFTESTHVEFKRFTTKKDIPRIKEMLPHYVSAFANTQGGYVLIGVDDKSKEVVGCKWEKVNPDLLKKEIENCIEKLPTFHFCCEKPKVNFTTKILNVYQKDVLDGYVCVIQVEPFCCVVFAEAPDSWIMKDNSVTRLTAEQWVVMMLDTQSAPPSLVTDYNSCLISSASSARKSPGYPIKVHKFKEALQRHLFPVTQEEVQFKPESLCKKLFSDHKELEGLMKTLIHPCSQGIVIFSRSWAGDVGFRKEQNVLCDALLIAVNSPVVLYTILIDPNWPGGLEYARNTAHQLKQKLQTVGGYTGKVCIIPRLIHLSSTQSRPGEIPLRYPRSYRLADEEEMEDLLQALVVVSLSSRSLLSDQMGCEFFNLLIMEQSQLLSESLQKTRELFIYCFPGVRKTALAIKIMEKIKDLFHCKPKEILYVCESDSLKDFVTQQTTCQAVTRKTFMQGEFLKIKHIVMDETENFCSKYGNWYMKAKNITHPKAKGTGSENLHHGILWLFLDPFQIHHADVNGLPPPSAQFPRKTITSGIHCALEIAKVMKEEMKRIKENPPSNMSPDTLALFSETAYEEATCAQALPGVCETKTNLTTEQIANYVARKCHSLFQCGYLPKDIAILCRRGEDRGRYRLALLKAMELIETHRPSEVVFSPATGVWGSHIVLDSIQQFSGLERTVVFGLSPECDQSEEFHKLCFASRAIKHLYLLYEKRAAY
B3: SLFN14(K218E)-GFP (protein, UniProt P0C7P3 1-912)
chain: MESLKTDTEMPYPEVIVDVGRVIFGEENRKKMTNSCLKRSENSRIIRAICALLNSGGGVIKAEIDDKTYSYQCHGLGQDLETSFQKLLPSGSQKYLDYMQQGHNLLIFVKSWSPDVFSLPLRICSLRSNLYRRDVTSAINLSASSALELLREKGFRAQRGRPRVKKLHPQQVLNRCIQEEEDMRILASEFFKKDKLMYKEKLNFTESTHVEFKRFTTEKVIPRIKEMLPHYVSAFANTQGGYVLIGVDDKSKEVVGCKWEKVNPDLLKKEIENCIEKLPTFHFCCEKPKVNFTTKILNVYQKDVLDGYVCVIQVEPFCCVVFAEAPDSWIMKDNSVTRLTAEQWVVMMLDTQSAPPSLVTDYNSCLISSASSARKSPGYPIKVHKFKEALQRHLFPVTQEEVQFKPESLCKKLFSDHKELEGLMKTLIHPCSQGIVIFSRSWAGDVGFRKEQNVLCDALLIAVNSPVVLYTILIDPNWPGGLEYARNTAHQLKQKLQTVGGYTGKVCIIPRLIHLSSTQSRPGEIPLRYPRSYRLADEEEMEDLLQALVVVSLSSRSLLSDQMGCEFFNLLIMEQSQLLSESLQKTRELFIYCFPGVRKTALAIKIMEKIKDLFHCKPKEILYVCESDSLKDFVTQQTTCQAVTRKTFMQGEFLKIKHIVMDETENFCSKYGNWYMKAKNITHPKAKGTGSENLHHGILWLFLDPFQIHHADVNGLPPPSAQFPRKTITSGIHCALEIAKVMKEEMKRIKENPPSNMSPDTLALFSETAYEEATCAQALPGVCETKTNLTTEQIANYVARKCHSLFQCGYLPKDIAILCRRGEDRGRYRLALLKAMELIETHRPSEVVFSPATGVWGSHIVLDSIQQFSGLERTVVFGLSPECDQSEEFHKLCFASRAIKHLYLLYEKRAAY
B4: SLFN14(K219N)-GFP (protein, UniProt P0C7P3 1-912)
chain: MESLKTDTEMPYPEVIVDVGRVIFGEENRKKMTNSCLKRSENSRIIRAICALLNSGGGVIKAEIDDKTYSYQCHGLGQDLETSFQKLLPSGSQKYLDYMQQGHNLLIFVKSWSPDVFSLPLRICSLRSNLYRRDVTSAINLSASSALELLREKGFRAQRGRPRVKKLHPQQVLNRCIQEEEDMRILASEFFKKDKLMYKEKLNFTESTHVEFKRFTTKNVIPRIKEMLPHYVSAFANTQGGYVLIGVDDKSKEVVGCKWEKVNPDLLKKEIENCIEKLPTFHFCCEKPKVNFTTKILNVYQKDVLDGYVCVIQVEPFCCVVFAEAPDSWIMKDNSVTRLTAEQWVVMMLDTQSAPPSLVTDYNSCLISSASSARKSPGYPIKVHKFKEALQRHLFPVTQEEVQFKPESLCKKLFSDHKELEGLMKTLIHPCSQGIVIFSRSWAGDVGFRKEQNVLCDALLIAVNSPVVLYTILIDPNWPGGLEYARNTAHQLKQKLQTVGGYTGKVCIIPRLIHLSSTQSRPGEIPLRYPRSYRLADEEEMEDLLQALVVVSLSSRSLLSDQMGCEFFNLLIMEQSQLLSESLQKTRELFIYCFPGVRKTALAIKIMEKIKDLFHCKPKEILYVCESDSLKDFVTQQTTCQAVTRKTFMQGEFLKIKHIVMDETENFCSKYGNWYMKAKNITHPKAKGTGSENLHHGILWLFLDPFQIHHADVNGLPPPSAQFPRKTITSGIHCALEIAKVMKEEMKRIKENPPSNMSPDTLALFSETAYEEATCAQALPGVCETKTNLTTEQIANYVARKCHSLFQCGYLPKDIAILCRRGEDRGRYRLALLKAMELIETHRPSEVVFSPATGVWGSHIVLDSIQQFSGLERTVVFGLSPECDQSEEFHKLCFASRAIKHLYLLYEKRAAY

Molecular target: T1, SLFN14(WT)-myc (human)
Assay: co-IP; HEK293T cells coexpressing SLFN14(WT)-myc and SLFN14(WT/mut)-GFP for 48 h; lysates precleared, anti-myc antibody with Protein G Sepharose overnight at 4°C; IP lysates analysed by Western blot

binding, binds:
B1
B2
B3
B4
